Data: the supplement of paper PMC11237882
The other results are listed elsewhere or left out. Values are worked out from sequencing counts and are noisy.

T1: Homer1 EVH1 domain
T1 chain: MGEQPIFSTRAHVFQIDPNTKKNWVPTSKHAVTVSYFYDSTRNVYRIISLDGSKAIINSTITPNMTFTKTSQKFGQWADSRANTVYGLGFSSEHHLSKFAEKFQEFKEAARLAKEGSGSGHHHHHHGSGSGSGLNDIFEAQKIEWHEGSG


Biological target: T1, Homer1 EVH1 domain
Experiment: enrichment score (AUC of log2 frequency ratio across FACS sorting rounds) (log2 AUC); higher = stronger enrichment for Homer1 EVH1 binding
With MLALAKILLISTLFYSLLSGSQGKENQDINTTQNIA the enrichment score was 4.48. SSHPNKAGQGHVGNIFQRLSGRYPKVQELLQGKRAR gave an enrichment score of 2.78. Work on MATARPPWMWVLCALITALLLGVTEHVLANNDVSCD yielded an enrichment score of 1.32. For MKRVLVLLLAVTFGHALERGRDYEKNKVCKEFSHLG, the enrichment score was -0.441. Binder STYINELLVLVLSAFNVLTPALTILASYIFIIASIS has an enrichment score of 2.99. LISTLILVILSYTYIIRTILRIPSAQQRKKAFSTCF showed an enrichment score of 3.44. In the case of VAAWVGGFVHSIAQLALILPLPFCGPNILDNFYCDV, the enrichment score is reported as 0.674. NVSRQIEDTVLYGYYTLYSVILFCVFFWIPFVYFYY was tested, and the enrichment score was 3.52. In the case of TIILAASLSSVASWLALSCLVCCWLKRSKSRKTKPE, the enrichment score is reported as 0.507. MGAQLSTLGHMVLFPVWFLYSLLMKLFQRSTPAITL was tested, and the enrichment score was 0.885. MMSFAPNASHSPVFLLLGFSRANISYTLLFFLFLAI was tested, and the enrichment score was 2.83. TSGSHMQPPAPAWETSLLLVLGVVIVLLAQCPMGRY gave an enrichment score of 3.67. Work on SAEGRWKACNTCASHLMVVTLLFGTALFVYLRPSSS yielded an enrichment score of 1.78. Work on DGFLVNYQESQSVIHNLLDQIPDMFADSNENETVFA yielded an enrichment score of 0.433. KMKMTDTSEKPLWRTVLNVNGIILVTVAVFCHAYFA gave an enrichment score of 0.852. With YPERPIIFYAVCYMMVSLIFFIGFLLEHRVACNASI the enrichment score was 3.92. In the case of LSTTYVGFCVYAGFFGFAFGWLSSVLFETLMDLVGP, the enrichment score is reported as -0.0232. Binder YFIPNWQGIQLAITLPSFLFLLYYWVVPESPRWLIT has an enrichment score of 1.4. LARIKWDPSDPQIISEGLYAIAVVLSFSRIAYILPA showed an enrichment score of -4.16. MLLLLLLAPLFLRPPGAGGAQTPNATSEGCQIIHPP was tested, and the enrichment score was 0.497. With MEKGLTLPQDCRDFVHSLKMRSKYALFLVFVVIVFG the enrichment score was -1.13. TGIRRHLHILIGPSVAIILFIILFFFLLHCCCSNKK showed an enrichment score of -2.94. For TSHRETQKAYLLAAGVIVCIYIICAVILILGVREQR, the enrichment score was 1.83. Work on HLSFPFSIIFSTVLYCGEVAFGLYMFEIYRKANDTF yielded an enrichment score of 2.03. ESLDFHLIVKDKTVGVPIEPIIAACVVIFLTLCFGL gave an enrichment score of -0.332. In the case of TVYPVPEGITCGVVTFLSNMFMGVLLFFLTFYHTEL, the enrichment score is reported as -2.22. In the case of PPADLPLALPAHGLWSRHILQQTLMDEGLRLARLVS, the enrichment score is reported as -0.81. MAKATSGAAGLRLLLLLLLPLLGKVALGLYFSRDAY gave an enrichment score of -3.52. Binder MGSLLALLALLPLWGAVAEGPAKRVLTLEGDLVLGG has an enrichment score of 0.269. CKDYALSYLSLRACIGLWTAFLCIVLVATDASSLVC gave an enrichment score of -0.196. Binder MNTTSSAAPPSLGVEFISLLAIIPLSVALAVGLPGN has an enrichment score of 2.89. FVNGVYAFGFLFMLPQLFVNYKLKSVAHLPWKAFTY was tested, and the enrichment score was 2.8. For MKTLPAMLGTGKLFWVFFLIPYLDIWNIHGKESCDV, the enrichment score was 1.39. Work on IGLIVASFSASVCSLLAITVDRYLSLYYALTYHSER yielded an enrichment score of -2.34. IKGKLFTWNILKTIALGQMLSLCICGTAITSQYLAE was tested, and the enrichment score was -0.0144. For AFAALICIIFIYEALEKLFDLGETYAFNMHNNLDKL, the enrichment score was 1.85. RLLFAKLFGHLTSARRARKSEVPHFRLKKVQNIKMW was tested, and the enrichment score was -1.45. For PSGPRWPRLAASSKTSRPRLKGKITAPGGAMERGRA, the enrichment score was -1.35. GPLAEVRDLPGSAPAKEDGFSWLLPPPPPPPLPFQT was tested, and the enrichment score was 1.67. For IVFMTFVVLNLFISVILVAFSEEQKYYQLSEEGEIV, the enrichment score was -3.01. KIDRMSRIVFPVLFGTFNLVYWATYLNREPVLGVSP was tested, and the enrichment score was 1.22. NNNTAAKGKRTKKGMATAKQRLGKILKIHRNGKPLL gave an enrichment score of 2.5. For FSSLIGSGCQIFAVSLIVIIVAMIEDLYTERGSMLS, the enrichment score was 1.52. TTSPFSLFPPPPLAKALNLAILLGCLTICPALDSQS showed an enrichment score of 0.496.
